Experimental data reported in publication PMC9885684.
Results are given in words; binding and its absence hold for the method and conditions named. In cells and extracts the contact can be indirect. Some binding calls cover weakened binding; strength is not graded here. For part of these data: Sequences can lack the tags named with a protein.

The chains behind the UniProt entries cited, without tags or fusion partners. Where a name states a change or a piece, a line headed by the entry shows the natural chain unless it says otherwise. Residues count along the entry.
UniProt Q14999: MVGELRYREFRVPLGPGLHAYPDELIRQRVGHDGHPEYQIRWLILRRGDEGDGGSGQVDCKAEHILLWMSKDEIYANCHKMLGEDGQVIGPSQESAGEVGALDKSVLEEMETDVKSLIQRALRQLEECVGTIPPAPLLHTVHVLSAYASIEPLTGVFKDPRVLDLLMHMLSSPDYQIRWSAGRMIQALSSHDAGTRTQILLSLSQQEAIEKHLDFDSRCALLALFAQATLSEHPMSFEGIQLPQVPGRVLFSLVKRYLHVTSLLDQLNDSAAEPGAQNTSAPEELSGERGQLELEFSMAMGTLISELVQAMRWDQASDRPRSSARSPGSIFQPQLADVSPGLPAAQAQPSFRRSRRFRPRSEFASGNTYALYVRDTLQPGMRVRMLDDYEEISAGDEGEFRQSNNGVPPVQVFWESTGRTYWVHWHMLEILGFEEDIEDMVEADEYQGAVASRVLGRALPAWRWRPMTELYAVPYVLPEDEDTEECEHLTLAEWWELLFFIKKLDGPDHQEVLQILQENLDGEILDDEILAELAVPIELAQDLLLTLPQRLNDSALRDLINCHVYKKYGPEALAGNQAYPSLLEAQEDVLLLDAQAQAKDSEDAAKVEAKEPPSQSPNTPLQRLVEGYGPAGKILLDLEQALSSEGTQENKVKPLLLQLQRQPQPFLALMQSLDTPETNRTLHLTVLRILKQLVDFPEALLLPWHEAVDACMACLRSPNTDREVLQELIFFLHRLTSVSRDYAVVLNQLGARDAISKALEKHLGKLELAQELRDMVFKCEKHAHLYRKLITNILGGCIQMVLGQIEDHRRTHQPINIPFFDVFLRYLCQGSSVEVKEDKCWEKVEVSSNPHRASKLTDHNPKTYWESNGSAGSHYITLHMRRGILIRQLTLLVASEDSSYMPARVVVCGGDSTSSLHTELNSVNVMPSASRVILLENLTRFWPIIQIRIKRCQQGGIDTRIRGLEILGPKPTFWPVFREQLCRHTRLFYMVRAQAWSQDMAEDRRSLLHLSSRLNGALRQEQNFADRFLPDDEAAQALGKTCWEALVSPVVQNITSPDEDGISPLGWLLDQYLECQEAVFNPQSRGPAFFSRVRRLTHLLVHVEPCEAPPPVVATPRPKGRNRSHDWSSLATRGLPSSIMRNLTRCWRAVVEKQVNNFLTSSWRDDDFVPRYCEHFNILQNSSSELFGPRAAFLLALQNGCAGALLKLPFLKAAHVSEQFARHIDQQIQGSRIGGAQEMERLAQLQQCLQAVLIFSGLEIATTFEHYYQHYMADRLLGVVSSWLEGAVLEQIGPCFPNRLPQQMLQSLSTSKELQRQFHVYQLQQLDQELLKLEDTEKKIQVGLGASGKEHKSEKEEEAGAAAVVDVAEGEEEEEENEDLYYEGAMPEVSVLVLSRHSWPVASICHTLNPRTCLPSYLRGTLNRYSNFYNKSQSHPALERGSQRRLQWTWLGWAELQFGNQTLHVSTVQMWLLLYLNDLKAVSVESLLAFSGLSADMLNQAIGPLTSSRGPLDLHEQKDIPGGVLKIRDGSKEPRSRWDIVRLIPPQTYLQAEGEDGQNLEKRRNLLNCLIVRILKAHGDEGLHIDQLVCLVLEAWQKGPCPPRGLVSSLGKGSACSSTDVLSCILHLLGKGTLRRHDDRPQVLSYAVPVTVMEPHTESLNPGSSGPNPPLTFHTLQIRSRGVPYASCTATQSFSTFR
UniProt Q63472: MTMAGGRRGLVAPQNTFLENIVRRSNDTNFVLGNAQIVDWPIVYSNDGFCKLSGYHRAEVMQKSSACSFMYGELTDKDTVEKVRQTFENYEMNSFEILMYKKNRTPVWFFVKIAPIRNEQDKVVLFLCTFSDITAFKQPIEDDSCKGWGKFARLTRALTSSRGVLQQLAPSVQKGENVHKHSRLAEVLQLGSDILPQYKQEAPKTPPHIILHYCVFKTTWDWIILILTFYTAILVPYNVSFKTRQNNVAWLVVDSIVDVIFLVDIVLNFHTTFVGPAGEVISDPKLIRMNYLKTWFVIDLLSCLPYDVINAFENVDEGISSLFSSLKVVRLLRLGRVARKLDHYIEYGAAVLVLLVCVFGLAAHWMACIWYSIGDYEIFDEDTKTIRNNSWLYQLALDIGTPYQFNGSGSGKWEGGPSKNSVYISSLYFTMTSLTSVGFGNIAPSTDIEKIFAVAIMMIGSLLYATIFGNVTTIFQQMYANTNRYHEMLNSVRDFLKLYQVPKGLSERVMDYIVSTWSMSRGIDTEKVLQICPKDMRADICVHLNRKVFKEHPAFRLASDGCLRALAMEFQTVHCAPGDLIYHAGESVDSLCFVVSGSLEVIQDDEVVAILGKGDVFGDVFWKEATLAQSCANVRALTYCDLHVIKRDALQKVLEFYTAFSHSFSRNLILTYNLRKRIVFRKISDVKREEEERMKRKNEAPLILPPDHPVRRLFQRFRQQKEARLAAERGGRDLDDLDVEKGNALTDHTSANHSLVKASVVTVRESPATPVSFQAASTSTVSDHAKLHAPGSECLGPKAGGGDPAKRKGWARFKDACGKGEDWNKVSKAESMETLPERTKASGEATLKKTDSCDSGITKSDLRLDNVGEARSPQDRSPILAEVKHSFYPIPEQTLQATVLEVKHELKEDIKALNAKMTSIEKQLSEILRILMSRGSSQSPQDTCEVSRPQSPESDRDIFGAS
GST-Eag1-N (PAS domain and N-linker; amino acids 1-207): residues 1-207 of Q63472
GST-Eag1-C1-B (CNBHD and proximal post-CNBHD; amino acids 561-722): residues 561-722 of Q63472
UniProt D3ZEF4: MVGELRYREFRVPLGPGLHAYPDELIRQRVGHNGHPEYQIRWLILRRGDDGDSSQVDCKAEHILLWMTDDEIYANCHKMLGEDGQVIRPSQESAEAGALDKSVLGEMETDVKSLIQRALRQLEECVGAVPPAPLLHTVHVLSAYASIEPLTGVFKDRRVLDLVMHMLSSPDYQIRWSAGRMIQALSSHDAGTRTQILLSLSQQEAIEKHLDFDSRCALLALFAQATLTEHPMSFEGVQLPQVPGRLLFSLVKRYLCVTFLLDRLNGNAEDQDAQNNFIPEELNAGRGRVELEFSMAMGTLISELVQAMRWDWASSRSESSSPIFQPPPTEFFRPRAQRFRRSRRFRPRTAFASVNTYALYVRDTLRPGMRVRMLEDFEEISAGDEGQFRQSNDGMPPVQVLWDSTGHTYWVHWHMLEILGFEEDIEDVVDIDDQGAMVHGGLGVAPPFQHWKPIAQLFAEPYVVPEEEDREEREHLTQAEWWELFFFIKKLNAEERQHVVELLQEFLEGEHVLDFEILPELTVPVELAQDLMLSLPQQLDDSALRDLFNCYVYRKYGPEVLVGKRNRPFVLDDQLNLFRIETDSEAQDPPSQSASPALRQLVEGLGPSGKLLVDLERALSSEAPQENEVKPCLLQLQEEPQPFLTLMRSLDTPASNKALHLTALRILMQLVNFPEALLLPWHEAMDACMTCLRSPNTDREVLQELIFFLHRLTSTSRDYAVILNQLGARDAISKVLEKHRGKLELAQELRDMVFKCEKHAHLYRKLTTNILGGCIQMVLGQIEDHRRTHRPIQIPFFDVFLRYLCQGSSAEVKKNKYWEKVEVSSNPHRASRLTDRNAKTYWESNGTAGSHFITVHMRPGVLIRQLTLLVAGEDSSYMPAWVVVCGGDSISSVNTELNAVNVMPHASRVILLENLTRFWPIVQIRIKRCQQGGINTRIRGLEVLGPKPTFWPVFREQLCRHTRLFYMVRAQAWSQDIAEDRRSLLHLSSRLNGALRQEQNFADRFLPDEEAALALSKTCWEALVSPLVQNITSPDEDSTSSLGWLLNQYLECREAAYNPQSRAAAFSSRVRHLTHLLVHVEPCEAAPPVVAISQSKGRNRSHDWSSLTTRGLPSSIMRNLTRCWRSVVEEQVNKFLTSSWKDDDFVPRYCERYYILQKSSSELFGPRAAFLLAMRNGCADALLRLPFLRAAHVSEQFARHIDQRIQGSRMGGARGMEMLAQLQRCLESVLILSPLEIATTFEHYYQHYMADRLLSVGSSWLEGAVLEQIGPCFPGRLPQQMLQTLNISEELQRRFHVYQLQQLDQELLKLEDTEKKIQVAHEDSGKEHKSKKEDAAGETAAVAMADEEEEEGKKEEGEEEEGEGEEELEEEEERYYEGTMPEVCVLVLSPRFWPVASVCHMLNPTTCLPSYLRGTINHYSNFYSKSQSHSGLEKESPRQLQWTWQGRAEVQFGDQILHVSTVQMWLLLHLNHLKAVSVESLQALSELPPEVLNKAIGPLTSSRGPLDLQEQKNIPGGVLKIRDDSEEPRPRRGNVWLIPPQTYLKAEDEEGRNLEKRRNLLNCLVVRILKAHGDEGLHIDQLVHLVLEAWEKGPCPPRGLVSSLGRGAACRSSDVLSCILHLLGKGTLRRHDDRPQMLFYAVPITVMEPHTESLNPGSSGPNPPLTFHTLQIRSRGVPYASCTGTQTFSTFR

T1: Myc-14-3-3θ (rat) (UniProt P68255)
T1 sequence: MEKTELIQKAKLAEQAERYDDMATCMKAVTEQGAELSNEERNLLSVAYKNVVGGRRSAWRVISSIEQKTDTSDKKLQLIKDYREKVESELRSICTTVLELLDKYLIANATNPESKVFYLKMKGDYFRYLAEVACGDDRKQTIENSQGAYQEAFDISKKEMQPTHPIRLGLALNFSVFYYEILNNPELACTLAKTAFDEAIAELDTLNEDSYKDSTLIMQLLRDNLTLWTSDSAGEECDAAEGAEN

T2: GST-14-3-3θ fusion protein (rat) (UniProt P68255)
T2 sequence: T1 sequence

B1: endogenous 14-3-3θ in cultured cortical neurons (protein, UniProt P68255 1-245)
chain: T1 sequence

Experiments:
Myc-14-3-3θ (rat) = biological target: T1, Myc-14-3-3θ (rat); assay: co-IP; HEK293T cells over-expressing Myc-14-3-3θ and Eag1; IP with anti-Myc antibody; immunoblot
Myc-tagged Cul7 = Myc-tagged Cul7 (UniProt Q14999); assay: co-IP; HEK293T cells co-expressing Myc-Cul7, Eag1 and YFP-R18 mutant or YFP-difopein; 10 μM MG132 for 12 h; IP with anti-Cul7 antibody, buffer A with 1% Triton X-100, 16 h at 4 °C; immunoblot
[1] = biological target: GST-Eag1-N (PAS domain and N-linker; amino acids 1-207) (rat) (UniProt Q63472); assay: pull-down; GST fusion protein-coated glutathione-agarose beads (6-8 μg) incubated overnight at 4 °C with lysates of HEK293T cells expressing Myc-Cul7, alone or co-expressed with YFP-R18 mutant or YFP-difopein; immunoblot with anti-Cul7 and anti-GST; only the target purified
[2] = biological target: GST-Eag1-C1-B (CNBHD and proximal post-CNBHD; amino acids 561-722) (rat) (UniProt Q63472); assay: as above
[3] = biological target: T2, GST-14-3-3θ fusion protein (rat); assay: pull-down; GST fusion protein-coated glutathione-agarose beads incubated overnight at 4 °C with lysates of cultured rat cortical neurons; immunoblot; only the target purified
[4] = biological target: GST-Eag1-C1-B (CNBHD and proximal post-CNBHD; amino acids 561-722) (rat) (UniProt Q63472); assay: as above

Molecule | binding (Myc-14-3-3θ (rat)) | binding [3] | binding [4] | also measured
Eag1 (KV10.1; KCNH1) potassium channel, rat, over-expressed (from UniProt Q63472 1-962) | binds |  |  | binding (Myc-tagged Cul7): binds
Myc-tagged Cul7 (from UniProt Q14999 1-1698) |  |  |  | binding [1]: binds; binding [2]: binds
endogenous Cul7 in HEK293T cells (from UniProt Q14999 1-1698) | binds |  |  | 
endogenous Cul7 in cultured cortical neurons (from UniProt D3ZEF4 1-1692) |  | binds | binds | 
endogenous Eag1 in cultured cortical neurons (from UniProt Q63472 1-962) |  | binds |  | 
B1 |  |  | binds | 
